PubChem BioAssay AID1259297 | Sanger Institute – 2017

Aim: 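Kinase knock-downs that lower colorectal cancer cell viability or act with drugs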 (primary screen)
Cells: human RCM1 colorectal cancer cell line
Reagents: siRNA pool against human genes
Conditions: separate arms: DMSO vehicle, or one anchor drug at a mild dose: BYL719 1 µM, cetuximab 5 µg/ml, trametinib 10 nM
Detection: 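Replicate-mean well viability as a share of non-targeting pool control, a robust z-score without drug, and synergy scores for BYL719, cetuximab and trametinib arms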
Reading the numbers: viability z-score, knock-down alone: higher = more viable cells than non-targeting controls
Call rule: 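Essential when the viability robust z-score for knock-down alone is below -3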
Meaning of the calls: active = essential when knocked down alone; inactive = no clear loss of viability alone
Here is a random part of 794 reagents tested. Over the whole deposit, 13 (1.6%) got an active call. 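Calls reflect knock-down without drug only; drug synergy is judged separately, with scores above 0.15 counted as synergy.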 A number with no mark means an inactive call. Further read-outs or replicates are left out here. Not stated in the record: the amount of reagent, the time to read-out.

The first 5 records as a preview:
| gene | viability z-score, knock-down alone |
| --- | --- |
| MED24 (mediator complex subunit 24) | 0.9 |
| TNK2 (tyrosine kinase non receptor 2) | 0.9 |
| TLK2 (tousled like kinase 2) | 0.9 |
| ALPK3 (alpha kinase 3) | -0.0768 |
| MPP2 (MAGUK p55 scaffold protein 2) | 0.224 |

The listing, from the start:
| gene | viability z-score, knock-down alone |
| --- | --- |
| MED24 (mediator complex subunit 24) | 0.9 |
| TNK2 (tyrosine kinase non receptor 2) | 0.9 |
| TLK2 (tousled like kinase 2) | 0.9 |
| ALPK3 (alpha kinase 3) | -0.0768 |
| MPP2 (MAGUK p55 scaffold protein 2) | 0.224 |
| TPK1 (thiamin pyrophosphokinase 1) | -0.659 |
| PINK1 (PTEN induced kinase 1) | -2.09 |
| MAP3K21 (mitogen-activated protein kinase kinase kinase 21) | -0.624 |
| NEK4 (NIMA related kinase 4) | 0.9 |
| PRKAA1 (protein kinase AMP-activated catalytic subunit alpha 1) | 0.9 |
| PTK2 (protein tyrosine kinase 2) | -0.675 |
| UCKL1 (uridine-cytidine kinase 1 like 1) | 0.9 |
| CKMT2 (creatine kinase, mitochondrial 2) | 0.339 |
| CRIM1 (cysteine rich transmembrane BMP regulator 1) | 0.9 |
| MAPK7 (mitogen-activated protein kinase 7) | 0.9 |
| APC (APC regulator of Wnt signaling pathway) | -0.14 |
| SIK2 (salt inducible kinase 2) | 0.857 |
| EPHA8 (EPH receptor A8) | -0.139 |
| NME4 (NME/NM23 nucleoside diphosphate kinase 4) | -1.32 |
| EIF2AK4 (eukaryotic translation initiation factor 2 alpha kinase 4) | 0.612 |
| PAK3 (p21 (RAC1) activated kinase 3) | 0.45 |
| PRKY (protein kinase Y-linked (pseudogene)) | -1.21 |
| PKIB (cAMP-dependent protein kinase inhibitor beta) | 0.519 |
| CHD9 (chromodomain helicase DNA binding protein 9) | -0.172 |
| PRKCSH (PRKCSH beta subunit of glucosidase II) | 0.193 |
| SHPK (sedoheptulokinase) | 0.0834 |
| INSRR (insulin receptor related receptor) | 0.618 |
| PFKM (phosphofructokinase, muscle) | 0.9 |
| NUP107 (nucleoporin 107) | -0.525 |
| VRK3 (VRK serine/threonine kinase 3) | 0.382 |
| DCLK3 (doublecortin like kinase 3) | -0.233 |
| IRAK3 (interleukin 1 receptor associated kinase 3) | -2.43 |
| SNRK (SNF related kinase) | -0.735 |
| DDR2 (discoidin domain receptor tyrosine kinase 2) | 0.503 |
| TYK2 (tyrosine kinase 2) | -0.222 |
| STK32B (serine/threonine kinase 32B) | 0.00519 |
| MAP3K4 (mitogen-activated protein kinase kinase kinase 4) | 0.9 |
| PKMYT1 (protein kinase, membrane associated tyrosine/threonine 1) | 0.457 |
| POLR2B (RNA polymerase II subunit B) | -3.57 (active) |
| GUCY2D (guanylate cyclase 2D, retinal) | -2.64 |
| MAST3 (microtubule associated serine/threonine kinase 3) | -0.389 |
| BRD3 (bromodomain containing 3) | 0.9 |
| MASTL (microtubule associated serine/threonine kinase like) | -0.889 |
| PFKFB4 (6-phosphofructo-2-kinase/fructose-2,6-biphosphatase 4) | -0.0997 |
| TAF1 (TATA-box binding protein associated factor 1) | 0.889 |
| FGFR1 (fibroblast growth factor receptor 1) | 0.9 |
| CDKL1 (cyclin dependent kinase like 1) | 0.702 |
| STK26 (serine/threonine kinase 26) | 0.546 |
| LIMK2 (LIM domain kinase 2) | 0.215 |
| BRWD1 (bromodomain and WD repeat domain containing 1) | 0.493 |
